Assay results taken from paper PMC9587234.
Results are given in words; binding and its absence hold for the method and conditions named. Binding seen in cells or lysates may run through a third protein. Some entries that bind do so weakly or less than the wild type.

Molecular target: T1, BUD31 (human (endogenous in HEYA8)) (UniProt P41223)
T1 sequence: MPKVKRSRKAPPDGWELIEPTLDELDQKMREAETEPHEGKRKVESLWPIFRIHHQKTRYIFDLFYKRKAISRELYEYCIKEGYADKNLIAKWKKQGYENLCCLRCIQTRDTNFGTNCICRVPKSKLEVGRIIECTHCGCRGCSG
Experiment: co-IP; co-immunoprecipitation assay (Fig. S4b), detected by western blot; bait, cells and conditions not told in the text shown

B1: U2AF1 (protein, UniProt Q01081 1-240)
chain: MAEYLASIFGTEKDKVNCSFYFKIGACRHGDRCSRLHNKPTFSQTIALLNIYRNPQNSSQSADGLRCAVSDVEMQEHYDEFFEEVFTEMEEKYGEVEEMNVCDNLGDHLVGNVYVKFRREEDAEKAVIDLNNRWFNGQPIHAELSPVTDFREACCRQYEMGECTRGGFCNFMHLKPISRELRRELYGRRRKKHRSRSRSRERRSRSRDRGRGGGGGGGGGGGGRERDRRRSRDRERSGRF
binding: binds

B2: SART1 (protein, UniProt O43290 1-800)
chain: MGSSKKHRGEKEAAGTTAAAGTGGATEQPPRHREHKKHKHRSGGSGGSGGERRKRSRERGGERGSGRRGAEAEARSSTHGRERSQAEPSERRVKREKRDDGYEAAASSKTSSGDASSLSIEETNKLRAKLGLKPLEVNAIKKEAGTKEEPVTADVINPMALRQREELREKLAAAKEKRLLNQKLGKIKTLGEDDPWLDDTAAWIERSRQLQKEKDLAEKRAKLLEEMDQEFGVSTLVEEEFGQRRQDLYSARDLQGLTVEHAIDSFREGETMILTLKDKGVLQEEEDVLVNVNLVDKERAEKNVELRKKKPDYLPYAEDESVDDLAQQKPRSILSKYDEELEGERPHSFRLEQGGTADGLRERELEEIRAKLRLQAQSLSTVGPRLASEYLTPEEMVTFKKTKRRVKKIRKKEKEVVVRADDLLPLGDQTQDGDFGSRLRGRGRRRVSEVEEEKEPVPQPLPSDDTRVENMDISDEEEGGAPPPGSPQVLEEDEAELELQKQLEKGRRLRQLQQLQQLRDSGEKVVEIVKKLESRQRGWEEDEDPERKGAIVFNATSEFCRTLGEIPTYGLAGNREEQEELMDFERDEERSANGGSESDGEENIGWSTVNLDEEKQQQDFSASSTTILDEEPIVNRGLAAALLLCQNKGLLETTVQKVARVKAPNKSLPSAVYCIEDKMAIDDKYSRREEYRGFTQDFKEKDGYKPDVKIEYVDETGRKLTPKEAFRQLSHRFHGKGSGKMKTERRMKKLDEEALLKKMSSSDTPLGTVALLQEKQKAQKTPYIVLSGSGKSMNANTITK
binding: binds
